Measurements from article PMC11695829, “DSIF factor Spt5 coordinates transcription, maturation and exoribonucleolysis of RNA polymerase II transcripts” (Nature Communications, 2025).

Columns and labels:
[1] = target: T1, full-length Rai1 Strep-tagged (S. pombe) (UniProt O13836); assay: pull-down; Rai1 immobilised on beads and challenged with Xrn2 or Xrn2/Spt4/5; no Pol II; both purified
T1 sequence: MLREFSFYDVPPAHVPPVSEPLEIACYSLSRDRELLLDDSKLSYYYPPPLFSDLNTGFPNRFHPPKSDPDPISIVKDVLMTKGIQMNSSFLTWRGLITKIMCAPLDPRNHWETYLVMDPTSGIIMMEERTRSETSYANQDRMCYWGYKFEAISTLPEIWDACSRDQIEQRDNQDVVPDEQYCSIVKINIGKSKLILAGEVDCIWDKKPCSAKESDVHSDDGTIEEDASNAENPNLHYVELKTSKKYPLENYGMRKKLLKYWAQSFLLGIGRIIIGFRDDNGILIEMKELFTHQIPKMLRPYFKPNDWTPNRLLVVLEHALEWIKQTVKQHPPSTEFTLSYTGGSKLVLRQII

[2] = target: T2, Rpc10 (Rpb12) (subunit of the purified S. pombe Pol II) (S. pombe) (UniProt P48011); assay: cryo-EM structure; Pol II-scaffold 1-Spt4/5-Xrn2^M/Rai1 complex assembled on M2 Flag resin, eluted with 3xFlag peptide, cross-linked with 0.1% glutaraldehyde; 2.67 Å map; both purified
T2 sequence: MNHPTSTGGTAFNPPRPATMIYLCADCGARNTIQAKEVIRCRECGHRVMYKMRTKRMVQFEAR

[3] = target: T2, Rpc10 (Rpb12) (subunit of the purified S. pombe Pol II) (S. pombe); assay: cross-linking; reconstituted Pol II-DSIF-Xrn2^M-Rai1-DNA-RNA complex cross-linked with BS3 on ice for 1 h; cross-linked peptides by mass spectrometry (pLink); both purified
[4] = target: T3, Rpb3 (subunit of the purified S. pombe Pol II) (S. pombe) (UniProt P37382); assay: as above
T3 sequence: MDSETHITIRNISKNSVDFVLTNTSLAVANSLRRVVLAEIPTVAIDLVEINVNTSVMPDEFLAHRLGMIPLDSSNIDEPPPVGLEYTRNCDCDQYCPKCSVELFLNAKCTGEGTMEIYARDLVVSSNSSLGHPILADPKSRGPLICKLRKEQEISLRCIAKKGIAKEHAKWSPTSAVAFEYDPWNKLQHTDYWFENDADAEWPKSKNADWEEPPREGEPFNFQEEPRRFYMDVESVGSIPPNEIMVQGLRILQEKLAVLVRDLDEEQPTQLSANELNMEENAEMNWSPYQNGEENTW

Substance | binding [1] | binding [2] | binding [3] | binding [4]
C-terminally truncated Xrn2 (residues 1–885), WT (S. pombe) (enzyme) | binds | – | – | –
Xrn2^M (D237A), residues 1–885 (S. pombe) (enzyme) | – | binds | binds | binds

These are yes or no findings as the source states them, for the method shown. A result given as binding can be weak or reduced; the word gives no strength. For some of these results: Sequences can lack the tags named with a protein.
